No constants are given. Whether binding was seen depends on the method and setting. A result given as binding can be weak or reduced; the word gives no strength.
Tests used:
[1] = target: cynomolgus LAIR-1 expressed on cells (293T cell line overexpressing cynomolgus LAIR-1) (cynomolgus); test: cell binding (FIG. 20B)
[2] = target: cynomolgus LAIR-1 expressed on cells (293T cell line overexpressing cynomolgus LAIR-1) (cynomolgus); test: flow cytometry, titrated h11B3, AF647 secondary antibody (FIG. 21B)

binding [1]: binds | binding [2]: binds
B1: h11B3 LAIR-1 mAb, Anti-LAIR-1 Variant 6 (h11B3 VL-2 / h11B3 VH-3) (antibody, V domains shown)
VH: EVQLVESGGGLVQPGGSLKLSCAASGFTFNTNAMYWVRQAPGKGLEWVGRIRSKSSNYATYYAASVKGRFTISRDDSKNTLYLQMNSLKTEDTAVYYCVRGGSGFFAYWGQGTLVTVSS
VL: DIQMTQSPSSLSASLGDRVTITCKASEDIYIRLAWYQQKPGKAPRLLISTATSLETGVPSRFSGSGSGTDYTFTISSLQPEDIATYYCQQYWSTPYTFGGGTRLEIK
